Taken from: PubChem BioAssay AID1224828 (NIAID, 2016)
In all, the deposit lists about 17,000 reagents; below is an unselected part. Of all reagents, 762 (4.5%) are marked active. 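Active calls include both raised and lowered p65 entry, mostly lowered; wells with fewer than 50 cells lack a z-score.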 Raw values vary from plate to plate and are shown uncorrected. Reagent sequences are not shown.

- Test: 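Knock-downs that increase or decrease LPS-induced p65 nuclear translocation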 (primary screen)
- Cells: mouse RAW264.7 G9 macrophage reporter cells (GFP-p65, Tnf promoter-mCherry)
- Knock-down reagent: siRNA pool against mouse genes, 100 nM
- Duration: 2 days siRNA transfection, then 40 min LPS before fixation
- Conditions: LPS (Salmonella minnesota R595) at 10 ng/ml
- Detection: 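Microscopy ratio of nuclear to perinuclear-ring GFP-p65 signal, scaled to the plate median; gene score is the average of two replicate robust z-scores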
- Reading the numbers: p65 translocation robust z-score: higher = more nuclear NF-kappaB p65 after LPS than the plate median; nuclear/cytoplasmic p65 ratio: higher = more nuclear NF-kappaB p65
- Call rule: 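Active if robust z is above 3.3 (negative regulators) or below -1.56, the Tlr4 control median (positive regulators); activity score 50 or more; control wells not called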
- Meaning of the calls: active = hit (p65 shift raised or lowered); inactive = no clear change

Hamp2 showed p65 translocation robust z-score -1.39; nuclear/cytoplasmic p65 ratio, rep 1 = 1.16; nuclear/cytoplasmic p65 ratio, rep 2 = 1.14; low cell count flag enough cells to score; inactive.
Triqk scored p65 translocation robust z-score -1.48; nuclear/cytoplasmic p65 ratio, rep 1 = 1.23; nuclear/cytoplasmic p65 ratio, rep 2 = 1.32; low cell count flag enough cells to score; inactive.
Npbwr1 showed p65 translocation robust z-score 0.05; nuclear/cytoplasmic p65 ratio, rep 1 = 1.47; nuclear/cytoplasmic p65 ratio, rep 2 = 1.64; low cell count flag enough cells to score; inactive.
With knock-down of Hmx3, the record shows p65 translocation robust z-score -0.68; nuclear/cytoplasmic p65 ratio, rep 1 = 1.6; nuclear/cytoplasmic p65 ratio, rep 2 = 1.39; low cell count flag enough cells to score; inactive.
For Kif15 the deposit lists p65 translocation robust z-score 0.51; nuclear/cytoplasmic p65 ratio, rep 1 = 1.48; nuclear/cytoplasmic p65 ratio, rep 2 = 1.5; low cell count flag enough cells to score; inactive.
Knock-down of Evx2 gave: nuclear/cytoplasmic p65 ratio, rep 1 = 1.24; nuclear/cytoplasmic p65 ratio, rep 2 = 1.95; low cell count flag fewer than 50 cells per well; well left out of scoring; inactive.
Rnd2 gave p65 translocation robust z-score -0.13; nuclear/cytoplasmic p65 ratio, rep 1 = 1.51; nuclear/cytoplasmic p65 ratio, rep 2 = 1.49; low cell count flag enough cells to score; inactive.
With knock-down of Tmprss11b, the screen gave nuclear/cytoplasmic p65 ratio, rep 1 = 1.68; nuclear/cytoplasmic p65 ratio, rep 2 = 1.65; low cell count flag fewer than 50 cells per well; well left out of scoring; inactive.
Plxna2 gave p65 translocation robust z-score 1.82; nuclear/cytoplasmic p65 ratio, rep 1 = 1.57; nuclear/cytoplasmic p65 ratio, rep 2 = 1.42; low cell count flag enough cells to score; inactive.
Timm17b gave nuclear/cytoplasmic p65 ratio, rep 1 = 1.23; nuclear/cytoplasmic p65 ratio, rep 2 = 0.988; low cell count flag fewer than 50 cells per well; well left out of scoring; inactive.
Against Zfp459, the values are p65 translocation robust z-score -0.94; nuclear/cytoplasmic p65 ratio, rep 1 = 1.35; nuclear/cytoplasmic p65 ratio, rep 2 = 1.36; low cell count flag enough cells to score; inactive.
For Cts8 the deposit lists p65 translocation robust z-score 0.42; nuclear/cytoplasmic p65 ratio, rep 1 = 1.62; nuclear/cytoplasmic p65 ratio, rep 2 = 1.87; low cell count flag enough cells to score; inactive.
After knock-down of Mtfr2 the results were p65 translocation robust z-score -0.52; nuclear/cytoplasmic p65 ratio, rep 1 = 1.33; nuclear/cytoplasmic p65 ratio, rep 2 = 1.2; low cell count flag enough cells to score; inactive.
Csmd1 showed p65 translocation robust z-score -0.73; nuclear/cytoplasmic p65 ratio, rep 1 = 1.4; nuclear/cytoplasmic p65 ratio, rep 2 = 1.74; low cell count flag enough cells to score; inactive.
After knock-down of Ebi3, the record shows p65 translocation robust z-score 0.05; nuclear/cytoplasmic p65 ratio, rep 1 = 1.49; nuclear/cytoplasmic p65 ratio, rep 2 = 1.36; low cell count flag enough cells to score; inactive.
Knock-down of Tmx1 came out at: p65 translocation robust z-score 0.16; nuclear/cytoplasmic p65 ratio, rep 1 = 1.41; nuclear/cytoplasmic p65 ratio, rep 2 = 1.2; low cell count flag enough cells to score; inactive.
Atf4 scored p65 translocation robust z-score -0.87; nuclear/cytoplasmic p65 ratio, rep 1 = 1.48; nuclear/cytoplasmic p65 ratio, rep 2 = 1.49; low cell count flag enough cells to score; inactive.
Gulp1 gave p65 translocation robust z-score -0.65; nuclear/cytoplasmic p65 ratio, rep 1 = 1.32; nuclear/cytoplasmic p65 ratio, rep 2 = 1.32; low cell count flag enough cells to score; inactive.
For Vps13a, the entry reads p65 translocation robust z-score -0.08; nuclear/cytoplasmic p65 ratio, rep 1 = 1.65; nuclear/cytoplasmic p65 ratio, rep 2 = 1.45; low cell count flag enough cells to score; inactive.
For Sult1e1, the entry reads p65 translocation robust z-score -0.23; nuclear/cytoplasmic p65 ratio, rep 1 = 1.53; nuclear/cytoplasmic p65 ratio, rep 2 = 1.51; low cell count flag enough cells to score; inactive.
Fxyd6 scored p65 translocation robust z-score -0.12; nuclear/cytoplasmic p65 ratio, rep 1 = 1.52; nuclear/cytoplasmic p65 ratio, rep 2 = 1.49; low cell count flag enough cells to score; inactive.

Ordered by “nuclear/cytoplasmic p65 ratio, rep 2” (highest first): some entries from above.
Tmprss11b → nuclear/cytoplasmic p65 ratio, rep 1: 1.68; nuclear/cytoplasmic p65 ratio, rep 2: 1.65; low cell count flag: fewer than 50 cells per well; well left out of scoring; call: inactive
Rnd2 → p65 translocation robust z-score: -0.13; nuclear/cytoplasmic p65 ratio, rep 1: 1.51; nuclear/cytoplasmic p65 ratio, rep 2: 1.49; low cell count flag: enough cells to score; call: inactive
Plxna2 → p65 translocation robust z-score: 1.82; nuclear/cytoplasmic p65 ratio, rep 1: 1.57; nuclear/cytoplasmic p65 ratio, rep 2: 1.42; low cell count flag: enough cells to score; call: inactive
